Laboratory results published in paper PMC5308826.
These are yes or no findings as the source states them, for the method shown. Binding seen in cells or lysates may run through a third protein. Some results given as binding are weak or reduced against the parent protein; the word gives no strength. Sequences can lack the tags named with a protein. Each block holds one molecule with its values, some of them ahead of it.

Chains of the proteins cited; added tags and fusions are not shown.
UniProt Q13616: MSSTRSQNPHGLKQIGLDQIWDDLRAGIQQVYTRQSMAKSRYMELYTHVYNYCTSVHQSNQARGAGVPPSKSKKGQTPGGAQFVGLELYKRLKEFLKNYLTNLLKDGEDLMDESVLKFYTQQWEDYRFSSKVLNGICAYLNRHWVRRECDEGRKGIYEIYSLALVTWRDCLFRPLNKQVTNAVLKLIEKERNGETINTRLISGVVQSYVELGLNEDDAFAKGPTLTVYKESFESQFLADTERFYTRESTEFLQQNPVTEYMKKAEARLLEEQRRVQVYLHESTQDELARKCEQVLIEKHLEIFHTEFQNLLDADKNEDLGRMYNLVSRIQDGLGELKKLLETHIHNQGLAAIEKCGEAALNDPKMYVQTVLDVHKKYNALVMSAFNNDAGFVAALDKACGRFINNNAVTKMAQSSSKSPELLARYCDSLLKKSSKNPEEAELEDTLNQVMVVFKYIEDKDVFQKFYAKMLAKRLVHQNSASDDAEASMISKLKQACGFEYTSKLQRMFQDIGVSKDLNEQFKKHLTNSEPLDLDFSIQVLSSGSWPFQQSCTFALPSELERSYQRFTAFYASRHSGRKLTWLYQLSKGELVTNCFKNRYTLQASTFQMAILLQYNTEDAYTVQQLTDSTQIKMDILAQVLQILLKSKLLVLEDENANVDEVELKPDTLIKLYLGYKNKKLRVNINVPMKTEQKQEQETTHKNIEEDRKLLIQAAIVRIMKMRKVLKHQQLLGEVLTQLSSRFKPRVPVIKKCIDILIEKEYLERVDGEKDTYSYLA
UniProt P63208: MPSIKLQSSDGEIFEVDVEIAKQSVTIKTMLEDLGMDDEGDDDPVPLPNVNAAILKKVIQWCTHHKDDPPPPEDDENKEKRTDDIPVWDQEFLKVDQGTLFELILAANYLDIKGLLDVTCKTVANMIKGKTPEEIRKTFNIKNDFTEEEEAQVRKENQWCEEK

Tests used:
[1] = target: T1, FLAG-UBXN1 (full-length, 1-297) (human) (UniProt Q04323); assay: co-IP
T1 sequence: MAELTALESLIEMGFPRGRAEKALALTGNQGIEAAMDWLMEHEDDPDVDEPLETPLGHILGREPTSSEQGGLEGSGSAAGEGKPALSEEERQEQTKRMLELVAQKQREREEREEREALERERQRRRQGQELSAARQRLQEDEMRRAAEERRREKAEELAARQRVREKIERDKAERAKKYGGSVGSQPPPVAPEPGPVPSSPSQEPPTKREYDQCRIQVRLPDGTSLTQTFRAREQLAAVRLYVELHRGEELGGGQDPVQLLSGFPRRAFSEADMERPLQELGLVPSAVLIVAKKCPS

FLAG-Cul1 (full-length) = FLAG-Cul1 (full-length) (UniProt Q13616); assay: co-IP

binding [1]: no binding
Molecule: Myc-Skp1 (from UniProt P63208 1-163)

binding (FLAG-Cul1 (full-length)): binds
B1: Myc-UBXN1 (protein, UniProt Q04323 1-297)
chain: T1 sequence
